Structures can show the parent of a compound that is named as a salt. ± gives the standard deviation of the averaged measurements. The list shows a part of the results. Many values rest on one well or one pass, so single values are uncertain.
System: RAW 264.7
Assay: HMGB1-induced TNF-alpha production relative to HMGB1-stimulated control; higher = more TNF-alpha secretion (less inhibition)
Conditions: stimulus: HMGB1 5 ug/ml, 18 h
[1] = compound concentration: 1 ug/ml

Structure (SMILES) | HMGB1-induced TNF-alpha production [1] [%] | HMGB1-induced TNF-alpha production (compound concentration: 3 uM) [%]
COc1ccc2[nH]cc(CCNC(C)=O)c2c1 [Melatonin] | 77.2 | 88.7 ± 4
O=C([O-])c1ccccc1O.[Na+] | – | 89.6
COc1cc(OC)c(C=C2C(=O)Nc3ccccc32)c(OC)c1 | – | 105
CN1CCCCC1CCN1c2ccccc2Sc2ccc([S+](C)[O-])cc21 (stereo not drawn) [Mesoridazine besylate] | – | 56.6
CN1CCCCC1CCN1c2ccccc2Sc2ccc([S+](C)[O-])cc21 (stereo not drawn) [Mesoridazine] | – | 91.1 ± 23
NC(=O)N/N=C/c1ccc([N+](=O)[O-])o1 | – | 83.1
NC(=O)N/N=C/c1ccc([N+](=O)[O-])o1 [Nitrofural] | – | 64.6
O=C(O[C@H]1CN2CCC1CC2)N1CCc2ccccc2[C@@H]1c1ccccc1 | – | 66.1
CCCC(=O)Nc1ncnc2c1ncn2[C@@H]1O[C@@H]2COP(=O)(O)O[C@H]2[C@H]1OC(=O)CCC | – | 94.6
CCCC(=O)Nc1ncnc2c1ncn2[C@@H]1O[C@@H]2COP(=O)(O)O[C@H]2[C@H]1OC(=O)CCC [Bucladesine sodium salt] | – | 139
CN(C)CCC[C@@]1(c2ccc(F)cc2)OCc2cc(C#N)ccc21 [Escitalopram] | – | 102 ± 7.8
CN(C)CCC[C@@]1(c2ccc(F)cc2)OCc2cc(C#N)ccc21 | – | 92.1 ± 2.5
CN1CCCC(n2nc(Cc3ccc(Cl)cc3)c3ccccc3c2=O)CC1 (stereo not drawn) [Azelastine HCl] | – | 116
O=C(CNC(=O)c1ccc(Cl)cc1)NO | – | 79.5
CC(=O)Oc1cccc(O)c1 | – | 85.5
CCN1CCN(C(=O)N[C@@H](C(=O)N[C@@H]2C(=O)N3[C@@H]2SC(C)(C)[C@@H]3C(=O)O)c2ccccc2)C(=O)C1=O [Piperacillin] | – | 85
CCN1CCN(C(=O)N[C@@H](C(=O)N[C@@H]2C(=O)N3[C@@H]2SC(C)(C)[C@@H]3C(=O)O)c2ccccc2)C(=O)C1=O [Piperacillin sodium salt] | – | 92
CCN1CCN(C(=O)N[C@@H](C(=O)N[C@@H]2C(=O)N3[C@@H]2SC(C)(C)[C@@H]3C(=O)O)c2ccccc2)C(=O)C1=O | – | 102
CO[C@@H]1[C@@H](OC(N)=O)[C@@H](O)[C@H](Oc2ccc3c(O)c(NC(=O)c4ccc(O)c(CC=C(C)C)c4)c(=O)oc3c2C)OC1(C)C [Novobiocin] | – | 85.5
CO[C@@H]1[C@@H](OC(N)=O)[C@@H](O)[C@H](Oc2ccc3c(O)c(NC(=O)c4ccc(O)c(CC=C(C)C)c4)c(=O)oc3c2C)OC1(C)C [Novobiocin sodium salt] | 72.7 | 96.4
CO[C@@H]1[C@@H](OC(N)=O)[C@@H](O)[C@H](Oc2ccc3c(O)c(NC(=O)c4ccc(O)c(CC=C(C)C)c4)c(=O)oc3c2C)OC1(C)C | – | 93.2

Shown with each value named: part of the list above
CN(C)CCC[C@@]1(c2ccc(F)cc2)OCc2cc(C#N)ccc21
  HMGB1-induced TNF-alpha production (compound concentration: 3 uM) [%]: 92.1 ± 2.5
CN1CCCC(n2nc(Cc3ccc(Cl)cc3)c3ccccc3c2=O)CC1 (stereo not drawn) [Azelastine HCl]
  HMGB1-induced TNF-alpha production (compound concentration: 3 uM) [%]: 116

— the supplement of paper PMC3682954
